The whole screen tested about 320,000 compounds, of which about 2,100 (0.66%) were called active. The inconclusive results got no clear call from the source; some entries with a clear call stand among them for comparison. The call rests on the fitted dose curve; in most records, active means well fitted inhibition curve with a large enough effect in the signal ratio, with a control signal flat (not every such curve was filed as active); inconclusive means small, poorly fitted or top-dose-only effect, or effect the other way, or a change in a side signal; inactive means flat fitted curve, though single readings scatter; the % refers to the signal ratio. Potencies beside an inconclusive call are fits to weak or partial responses and may not hold up.
Experiment: qHTS Assay for Lipid Storage Modulators in Drosophila S3 Cells
Details: BODIPY lipid droplet fluorescence, 18-24 h, cells fed with added oleic acid; lipid storage change, negative = inhibition: at 46.1 µM (top of the series) unless noted
In short: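 Drosophila S3 cells got compounds at several concentrations plus oleic acid (400 uM solution). Laser-scanning cytometry with 488 nm excitation read lipid droplets at 500-530 nm and cells at 575-640 nm. Percent activity was relative to 20 uM Triacsin C.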
On the % scale 0 is the no-effect control and ±100 the full control effect; potency means the concentration at half of the fitted maximal effect.

Structure (SMILES) | Potency | lipid storage change, negative = inhibition
CC1CCCCC1NC(=O)COC(=O)c1ccc2c(c1Cl)C(=O)c1ccccc1C2=O (stereo not drawn) | inconclusive: 0.092 µM [activator, full curve] | –
Cc1cc(NCc2ccccc2)c2ccccc2n1 | – | inconclusive: 62.9%
O=C(NNC(=O)c1ccccc1F)c1ccc(-n2cncn2)c([N+](=O)[O-])c1 | – | inconclusive: 12.8%
Cc1ccc(NC2CCCN(C(=O)c3cccc(-c4ncc[nH]4)c3)C2)cc1C (stereo not drawn) | – | inconclusive: 409%
C/C(=N\NC(N)=S)c1cc(-c2ccccc2)c(-c2ccccc2)s1 | inconclusive: 6.51 µM [falling, partial curve] | –
CCOC(=O)C1CCN(C(=O)Nc2ccc3oc(C)nc3c2)CC1 | inconclusive: 1.16 µM [falling, single point] | –
CCC1CCc2sc(C(=O)NCC3CCCO3)cc2C1 (stereo not drawn) | inconclusive: 0.259 µM [falling, full curve, poor fit] | –
CC(=O)N1CCN(c2ccc(NCc3ccc(F)cc3)cc2)CC1 | – | inconclusive: 13.4% [at 9.22 µM]
O=C(Cn1nc(C(=O)O)c2ccccc2c1=O)Nc1ccc(F)cc1F | – | inconclusive: 47.6%
COc1ccc(/C=N/Nc2ncnc3sc(C)c(C)c23)cc1 | inconclusive: 20.6 µM [activator, partial curve] | –
CCCc1nnc(SCC(=O)Nc2ccc(OCC)cc2)n1N | – | inconclusive: 7.7%
CCOc1ccc2cc(C#N)c(SCC(=O)N3CCOCC3)nc2c1 | inconclusive: 6.51 µM [rising, single point] | –
COCCn1c(=S)[nH]c2cc(C(=O)N3CCN(c4cccc(Cl)c4)CC3)ccc2c1=O | inconclusive: 3.66 µM [falling, single point] | –
c1ccc(-c2noc(CN3CCc4sccc4C3)n2)cc1 | – | inconclusive: 0.856%
O=C(O)C1CC1c1ccc(Br)cc1 (stereo not drawn) | – | inconclusive: 9.63%
Cc1ccc(O)c(-c2cc(C(=O)NCc3ccccc3)[nH]n2)c1 | – | inconclusive: 8.08%
O=C(c1ccoc1)N1CCC2(CC1)Oc1ccc(Cl)cc1C(=O)C21CC(c2ccc(Cl)cc2)=NO1 (stereo not drawn) | – | inconclusive: 16.9%
COCCN(C(=O)COC(=O)CCCOc1ccccc1)c1c(N)n(Cc2ccccc2)c(=O)[nH]c1=O | – | inconclusive
COc1ccc(Cc2n[nH]c(=S)n2N)cc1OC | – | inconclusive: -14.5%

Three of the compounds above, in markdown:

| Structure (SMILES) | Potency | lipid storage change, negative = inhibition |
| --- | --- | --- |
| CCC1CCc2sc(C(=O)NCC3CCCO3)cc2C1 (stereo not drawn) | inconclusive: 0.259 µM [falling, full curve, poor fit] | – |
| CC(=O)N1CCN(c2ccc(NCc3ccc(F)cc3)cc2)CC1 | – | inconclusive: 13.4% [at 9.22 µM] |
| O=C(Cn1nc(C(=O)O)c2ccccc2c1=O)Nc1ccc(F)cc1F | – | inconclusive: 47.6% |

(continued)

Structure (SMILES) | Potency | lipid storage change, negative = inhibition
O=C(Oc1ccc2c(c1)CCC2)N1CCOCC1 | – | inconclusive: 5.7%
COc1ccc(N(CC(=O)N2CCOCC2)S(C)(=O)=O)c(OC)c1 | inconclusive: 16.4 µM [activator, single point] | –
O=C(OCCCOc1ccc(F)cc1)c1ccc(O)cc1O | – | inconclusive: -22.8%
CC1CCN(C(=O)Cn2ncc3c4ccccc4n(C)c3c2=O)CC1 | – | inconclusive: 18%
Cc1ccc(S(=O)(=O)/N=C2/C=C(C3C(=O)CC(C)(C)CC3=O)C(=O)c3ccccc32)cc1 | – | inconclusive: -93.8%
CC(C)CCNC(=O)c1c[nH]c2ccc(S(=O)(=O)N3CCC4(CC3)OCCO4)cc2c1=O | – | inconclusive: -1.87%
COc1cc(/C=N/n2c(C)nc3ccccc3c2=O)ccc1O | – | inconclusive: 1.76%
O=C(O)CCc1nnc(SCC(=O)Nc2ccc(Br)cc2)[nH]c1=O | – | inconclusive: 40.6%
O=c1c2ccc(Cl)cc2nc(-c2ccc([N+](=O)[O-])cc2)n1O | inconclusive: 29.1 µM [falling, single point] | –
C/C(=N\N=C\c1ccccc1)c1nnn(-c2nonc2N)c1C | – | inconclusive: 1.86%
Cc1cc2c(c(=O)n1Cc1ccccc1)C1O[C@](CCCCN3C(=O)c4ccccc4C3=O)(Cc3cc(C#N)ccc31)O2 | – | inconclusive: 32.8% [at 9.22 µM]
Cc1ccc(F)cc1NC(=O)CCNC(=O)c1ccc([N+](=O)[O-])cc1 | – | inconclusive: 54.7%
COc1cccc2cc(C(=O)NCCc3ccccc3)c(=O)oc12 | – | inactive: 6.67%
CC(C)C(=O)Nc1ccc(Cc2ccc(NC(=O)C(C)C)c(O)c2)cc1O | inconclusive: 6.51 µM [falling, partial curve, poor fit] | –
COc1cccc(CNCC(O)COc2ccc(C(=O)c3ccccc3)cc2)c1 (stereo not drawn) | – | inactive: 0.646%
Cc1cccc(C(C)C)c1NC(=O)Cc1ccc(S(=O)(=O)N2CCOCC2)s1 | – | inconclusive: -20.2%
CCOc1ccc(NC(=O)C2CCN(S(=O)(=O)c3c(C)noc3C)CC2)cc1 | inconclusive: 3.26 µM [activator, partial curve] | –
COc1ccc(OC)c(S(=O)(=O)NCC(=O)NC2CCCc3ccccc32)c1 (stereo not drawn) | – | inconclusive: 29.7%
O=C(Cc1c(F)cccc1Cl)NCCc1c[nH]c2ccccc12 | – | inconclusive: 1.9%
